According to patent publication US20150165065A1 (AVIDBIOTICS, published 2015):
Changes are numbered by the printed parent chain. No constants are given. Whether binding was seen depends on the method and setting. Some binding calls cover weakened binding; strength is not graded here.

Chains of the proteins cited; added tags and fusions are not shown. Lines headed by an entry give the natural chain unless they say otherwise; changes in a name come on top.
UniProt P06756: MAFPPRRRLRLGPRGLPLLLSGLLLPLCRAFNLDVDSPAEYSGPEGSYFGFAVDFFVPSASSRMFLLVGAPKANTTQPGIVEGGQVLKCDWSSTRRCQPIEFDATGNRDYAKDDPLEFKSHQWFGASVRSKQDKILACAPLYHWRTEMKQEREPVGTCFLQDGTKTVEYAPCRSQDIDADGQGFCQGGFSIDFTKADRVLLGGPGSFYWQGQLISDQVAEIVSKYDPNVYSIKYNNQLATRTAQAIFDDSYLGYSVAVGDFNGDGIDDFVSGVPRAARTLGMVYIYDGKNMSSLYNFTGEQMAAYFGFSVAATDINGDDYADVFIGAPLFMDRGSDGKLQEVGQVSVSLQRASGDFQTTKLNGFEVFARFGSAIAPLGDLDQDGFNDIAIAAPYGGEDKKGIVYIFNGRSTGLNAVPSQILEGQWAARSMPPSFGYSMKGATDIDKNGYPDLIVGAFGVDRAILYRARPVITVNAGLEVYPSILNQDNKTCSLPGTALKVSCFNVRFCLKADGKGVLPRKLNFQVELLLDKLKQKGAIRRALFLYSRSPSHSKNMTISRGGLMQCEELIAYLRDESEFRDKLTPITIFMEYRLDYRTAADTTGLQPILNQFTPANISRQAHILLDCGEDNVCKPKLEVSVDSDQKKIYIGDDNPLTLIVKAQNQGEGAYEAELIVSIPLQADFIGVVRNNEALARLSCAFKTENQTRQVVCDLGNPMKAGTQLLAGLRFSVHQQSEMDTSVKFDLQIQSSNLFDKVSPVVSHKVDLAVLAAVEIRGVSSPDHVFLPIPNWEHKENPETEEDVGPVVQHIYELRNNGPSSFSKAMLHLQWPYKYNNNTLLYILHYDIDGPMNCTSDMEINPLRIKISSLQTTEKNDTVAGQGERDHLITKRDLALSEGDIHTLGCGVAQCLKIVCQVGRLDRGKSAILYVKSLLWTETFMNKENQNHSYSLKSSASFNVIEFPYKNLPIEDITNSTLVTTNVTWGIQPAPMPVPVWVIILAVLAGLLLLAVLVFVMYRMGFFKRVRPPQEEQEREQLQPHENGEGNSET

B1: soluble MICA generated from pKK46 (loop 1 insert extended 5.1sp) (designed binder)
chain: HHHHHHEPHSLRYNLTVLSWDGSVQSGFLTEVHLDGQPFLRCDRQKCRAKPQGQWAEDVLGNKTWDRETRDLTGNGKDLRMTLAHIKDQKEGLHSLQEIRVCEIHEDNSTRSSQHFYYDGELFLSQNLETEEWTMPQSSRAQTLAMNVRNFLKEDAMKTKTHYHAMHADCLQELRRYLKSGVVLRRTVPPMVNVTSGGSGGGSVTRGDTFTQSSGGSGGGVTCRASGFYPWNITLSWRQDGVSLSHDTQQWGDVLPDGNGTYQTWVATRICQGEEQRFTCYMEHSGNHSTHPVPSGK
notes: From pKK34 (His6, Glu125); secreted by 293T cells; also called 1-5.1sp
B2: soluble MICA generated from pKK47 (loop 1 insert extended 5.3sp) (designed binder)
chain: B1 chain with V204H, T205L, R206A, G207R, D208G, T209D, F210D, T211L, Q212T, S213Y
notes: From pKK34 (His6, Glu125); secreted by 293T cells; also called 1-5.3sp
B3: soluble MICA generated from pKK48 (loop 3 insert extended 3.2sp) (designed binder)
chain: EPHSLRYNLTVLSWDGSVQSGFLTEVHLDGQPFLRCDRQKCRAKPQGQWAEDVLGNKTWDRETRDLTGNGKDLRMTLAHIKDQKEGLHSLQEIRVCEIHEDNSTRSSQHFYYDGELFLSQNLETKEWTMPQSSRAQTLAMNVRNFLKEDAMKTKTHYHAMHADCLQELRRYLKSGVVLRRTVPPMVNVTRSEASEGNITVTCRASGFYPWNITLSWRQDGVSLSHDTQQWGDVLPDGNGTYQTWVATRISGGSGGGSTSRGDHPRTQSGGSGGGCYMEHSGNHSTHPVPSGK
notes: From pSW276 (no N-terminal His tag, Lys125); secreted by 293T cells; also called 3-3.2sp
B4: soluble MICA generated from pKK49 (loop 3 insert extended 3.3sp) (designed binder)
chain: B3 chain with T258R, S259V, R260P, G261R, D262G, H263D, P264S, R265D, T266L, Q267T
notes: From pSW276 (no N-terminal His tag, Lys125); secreted by 293T cells; also called 3-3.3sp
B5: soluble MICA generated from pKK50 (loop 3 insert extended 5.1sp) (designed binder)
chain: B3 chain with T258V, S259T, H263T, P264F, R265T, T266Q, Q267S
notes: From pSW276 (no N-terminal His tag, Lys125); secreted by 293T cells; also called 3-5.1sp
B6: soluble MICA generated from pKK51 (loop 3 insert extended 5.3sp) (designed binder)
chain: B3 chain with T258H, S259L, R260A, G261R, D262G, H263D, P264D, R265L, Q267Y
notes: From pSW276 (no N-terminal His tag, Lys125); secreted by 293T cells; also called 3-5.3sp
B7: soluble MICA generated from pKK52 (tight loop 1 insert T-3.1) (designed binder)
chain: HHHHHHEPHSLRYNLTVLSWDGSVQSGFLTEVHLDGQPFLRCDRQKCRAKPQGQWAEDVLGNKTWDRETRDLTGNGKDLRMTLAHIKDQKEGLHSLQEIRVCEIHEDNSTRSSQHFYYDGELFLSQNLETEEWTMPQSSRAQTLAMNVRNFLKEDAMKTKTHYHAMHADCLQELRRYLKSGVVLRRTVPPMVNTSRGDHPRTQCRASGFYPWNITLSWRQDGVSLSHDTQQWGDVLPDGNGTYQTWVATRICQGEEQRFTCYMEHSGNHSTHPVPSGK
notes: From pSW324 (from pKK34: His6, Glu125); secreted by 293T cells; also called 1-T-3.1
B8: soluble MICA generated from pKK53 (tight loop 1 insert T-3.5) (designed binder)
chain: B7 chain with T194G, H199S, P200L, R201I, T202M, Q203H
notes: From pSW324 (from pKK34: His6, Glu125); secreted by 293T cells; also called 1-T-3.5
B9: soluble MICA generated from pKK54 (tight loop 1 insert T-3.3) (designed binder)
chain: B7 chain with T194R, S195V, R196P, G197R, D198G, H199D, P200S, R201D, T202L, Q203T
notes: From pSW324 (from pKK34: His6, Glu125); secreted by 293T cells; also called 1-T-3.3
B10: soluble MICA generated from pKK55 (tight loop 1 insert T-5.1) (designed binder)
chain: B7 chain with T194V, S195T, H199T, P200F, R201T, T202Q, Q203S
notes: From pSW324 (from pKK34: His6, Glu125); secreted by 293T cells; also called 1-T-5.1
B11: soluble MICA generated from pKK56 (tight loop 1 insert T-5.3) (designed binder)
chain: B7 chain with T194H, S195L, R196A, G197R, D198G, H199D, P200D, R201L, Q203Y
notes: From pSW324 (from pKK34: His6, Glu125); secreted by 293T cells; also called 1-T-5.3
B12: M13 phage pKK92 displaying MICA α3 domain with loop 1 insert 3.1 (designed binder)
chain: TVPPMVNVTSRGDHPRTQVTCRASGFYPWNITLSWRQDGVSLSHDTQQWGDVLPDGNGTYQTWVATRICQGEEQRFTCYMEHSGNHSTHPVPSGK
notes: also called 1-3.1; not shown: C-terminal portion of M13 gene III protein, fused at codon position 198
B13: M13 phage pKK93 displaying MICA α3 domain with loop 1 insert 3.2 (designed binder)
chain: TVPPMVNVTRTSRGDHPRTQVTCRASGFYPWNITLSWRQDGVSLSHDTQQWGDVLPDGNGTYQTWVATRICQGEEQRFTCYMEHSGNHSTHPVPSGK
notes: also called 1-3.2; not shown: C-terminal portion of M13 gene III protein, fused at codon position 198
B14: M13 phage pKK94 displaying MICA α3 domain with loop 1 insert 3.3 (designed binder)
chain: TVPPMVNVTRVPRGDSDLTVTCRASGFYPWNITLSWRQDGVSLSHDTQQWGDVLPDGNGTYQTWVATRICQGEEQRFTCYMEHSGNHSTHPVPSGK
notes: also called 1-3.3; not shown: C-terminal portion of M13 gene III protein, fused at codon position 198
B15: M13 phage pKK98 displaying MICA α3 domain with loop 1 insert 5.3 (designed binder)
chain: B14 chain with R10H, V11L, P12A, S16D, D17L, L18T, T19Y
notes: also called 1-5.3; not shown: C-terminal portion of M13 gene III protein, fused at codon position 198
B16: M13 phage pKK96 displaying MICA α3 domain with loop 1 insert 5.1 (designed binder)
chain: B14 chain with R10V, V11T, P12R, R13G, G14D, D15T, S16F, D17T, L18Q, T19S
notes: also called 1-5.1; not shown: C-terminal portion of M13 gene III protein, fused at codon position 198

Experiments:
integrin αVβ5 [1] = target: T1, integrin αVβ5 (UniProt P06756 31-992; P18084 24-719); test: ELISA, coated integrin, anti-MICA-HRP
T1 construct: Coated on the ELISA plate

integrin αVβ3 [2] = target: T2, integrin αVβ3 (UniProt P06756 31-992; P05106 27-718); test: ELISA, coated integrin, anti-MICA-HRP
T2 construct: Coated on the ELISA plate

integrin αVβ5 [3] = target: T1, integrin αVβ5; test: phage ELISA, coated integrin, anti-M13-HRP
integrin αVβ3 [4] = target: T2, integrin αVβ3; test: phage ELISA, coated integrin, anti-M13-HRP

Row | Binder | binding (integrin αVβ5 [1]) | binding (integrin αVβ3 [2]) | binding (integrin αVβ5 [3]) | binding (integrin αVβ3 [4])
1 | B1 | binds | binds |  | 
2 | B2 | binds | binds |  | 
3 | B3 | binds | binds |  | 
4 | B4 | binds | binds |  | 
5 | B5 | binds | binds |  | 
6 | B6 | binds | binds |  | 
7 | B7 | binds | binds |  | 
8 | B8 | binds | binds |  | 
9 | B9 | binds | binds |  | 
10 | B10 | binds | binds |  | 
11 | B11 | binds | binds |  | 
12 | B12 |  |  | binds | binds
13 | B13 |  |  | binds | binds
14 | B14 |  |  | binds | binds
15 | B15 |  |  | binds | binds
16 | B16 |  |  | binds | binds
